These are yes or no findings as the source states them, for the method shown. Binding seen in cells or lysates may run through a third protein. A yes stands for co-enrichment or nearness to the bait. Other partners may have been found.

This experiment deals with T1, human Trx1C35S (human) (UniProt P10599).
T1 sequence: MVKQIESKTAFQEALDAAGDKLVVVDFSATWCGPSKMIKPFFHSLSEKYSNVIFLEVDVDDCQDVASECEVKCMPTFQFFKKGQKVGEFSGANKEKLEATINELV
Put plainly: pull-down + affinity purification with mass spectrometry.

B1: iron regulatory protein 1 (IRP1), endogenous in HeLa cells (protein, UniProt P21399 1-889)
chain: MSNPFAHLAEPLDPVQPGKKFFNLNKLEDSRYGRLPFSIRVLLEAAIRNCDEFLVKKQDIENILHWNVTQHKNIEVPFKPARVILQDFTGVPAVVDFAAMRDAVKKLGGDPEKINPVCPADLVIDHSIQVDFNRRADSLQKNQDLEFERNRERFEFLKWGSQAFHNMRIIPPGSGIIHQVNLEYLARVVFDQDGYYYPDSLVGTDSHTTMIDGLGILGWGVGGIEAEAVMLGQPISMVLPQVIGYRLMGKPHPLVTSTDIVLTITKHLRQVGVVGKFVEFFGPGVAQLSIADRATIANMCPEYGATAAFFPVDEVSITYLVQTGRDEEKLKYIKKYLQAVGMFRDFNDPSQDPDFTQVVELDLKTVVPCCSGPKRPQDKVAVSDMKKDFESCLGAKQGFKGFQVAPEHHNDHKTFIYDNTEFTLAHGSVVIAAITSCTNTSNPSVMLGAGLLAKKAVDAGLNVMPYIKTSLSPGSGVVTYYLQESGVMPYLSQLGFDVVGYGCMTCIGNSGPLPEPVVEAITQGDLVAVGVLSGNRNFEGRVHPNTRANYLASPPLVIAYAIAGTIRIDFEKEPLGVNAKGQQVFLKDIWPTRDEIQAVERQYVIPGMFKEVYQKIETVNESWNALATPSDKLFFWNSKSTYIKSPPFFENLTLDLQPPKSIVDAYVLLNLGDSVTTDHISPAGNIARNSPAARYLTNRGLTPREFNSYGSRRGNDAVMARGTFANIRLLNRFLNKQAPQTIHLPSGEILDVFDAAERYQQAGLPLIVLAGKEYGAGSSRDWAAKGPFLLGIKAVLAESYERIHRSNLVGMGVIPLEYLPGENADALGLTGQERYTIIIPENLKPQMKVQVKLDTGKTFQAVMRFDTDVELTYFLNGGILNYMIRKMAK
B1: the binding entry was “binds”.
